The target of this test is Flag-tagged hCdc14B catalytically inactive mutant (fl-hCdc14B^SL) (human). The test can be described thus: co-IP; cells co-transfected with expression plasmids, 10 µM MG132 for 6 h, lysed in buffer AM-120 with 0.5% NP-40, 10% glycerol, DNase I, RNase A; precipitated with anti-Flag (M2)-agarose; immunoblots. Background: A western blot detects proteins with antibodies after separation by electrophoresis.

Results are given in words; binding and its absence hold for the method and conditions named. Binding seen in cells or lysates may run through a third protein. A result given as binding can be weak or reduced; the word gives no strength. Where a sequence is shown, tags or fusion partners need not be part of it.

B1: HA-Cdc25B (enzyme, UniProt P30305 1-580)
chain: MEVPQPEPAPGSALSPAGVCGGAQRPGHLPGLLLGSHGLLGSPVRAAASSPVTTLTQTMHDLAGLGSETPKSQVGTLLFRSRSRLTHLSLSRRASESSLSSESSESSDAGLCMDSPSPMDPHMAEQTFEQAIQAASRIIRNEQFAIRRFQSMPVRLLGHSPVLRNITNSQAPDGRRKSEAGSGAASSSGEDKENDGFVFKMPWKPTHPSSTHALAEWASRREAFAQRPSSAPDLMCLSPDRKMEVEELSPLALGRFSLTPAEGDTEEDDGFVDILESDLKDDDAVPPGMESLISAPLVKTLEKEEEKDLVMYSKCQRLFRSPSMPCSVIRPILKRLERPQDRDTPVQNKRRRSVTPPEEQQEAEEPKARVLRSKSLCHDEIENLLDSDHRELIGDYSKAFLLQTVDGKHQDLKYISPETMVALLTGKFSNIVDKFVIVDCRYPYEYEGGHIKTAVNLPLERDAESFLLKSPIAPCSLDKRVILIFHCEFSSERGPRMCRFIRERDRAVNDYPSLYYPEMYILKGGYKEFFPQHPNFCEPQDYRPMNHEAFKDELKTFRLKTRSWAGERSRRELCSRLQDQ
B1: the binding result is “binds”.

B2: GFP-Cdc25C (enzyme, UniProt P30307 1-473)
chain: MSTELFSSTREEGSSGSGPSFRSNQRKMLNLLLERDTSFTVCPDVPRTPVGKFLGDSANLSILSGGTPKRCLDLSNLSSGEITATQLTTSADLDETGHLDSSGLQEVHLAGMNHDQHLMKCSPAQLLCSTPNGLDRGHRKRDAMCSSSANKENDNGNLVDSEMKYLGSPITTVPKLDKNPNLGEDQAEEISDELMEFSLKDQEAKVSRSGLYRSPSMPENLNRPRLKQVEKFKDNTIPDKVKKKYFSGQGKLRKGLCLKKTVSLCDITITQMLEEDSNQGHLIGDFSKVCALPTVSGKHQDLKYVNPETVAALLSGKFQGLIEKFYVIDCRYPYEYLGGHIQGALNLYSQEELFNFFLKKPIVPLDTQKRIIIVFHCEFSSERGPRMCRCLREEDRSLNQYPALYYPELYILKGGYRDFFPEYMELCEPQSYCPMHHQDHKTELLRCRSQSKVQEGERQLREQIALLVKDMSP
On to B2, for which the binding entry is “binds”.

B3: HA-Cdc25A (enzyme, UniProt P30304 1-524)
chain: MELGPEPPHRRRLLFACSPPPASQPVVKALFGASAAGGLSPVTNLTVTMDQLQGLGSDYEQPLEVKNNSNLQRMGSSESTDSGFCLDSPGPLDSKENLENPMRRIHSLPQKLLGCSPALKRSHSDSLDHDIFQLIDPDENKENEAFEFKKPVRPVSRGCLHSHGLQEGKDLFTQRQNSAPARMLSSNERDSSEPGNFIPLFTPQSPVTATLSDEDDGFVDLLDGENLKNEEETPSCMASLWTAPLVMRTTNLDNRCKLFDSPSLCSSSTRSVLKRPERSQEESPPGSTKRRKSMSGASPKESTNPEKAHETLHQSLSLASSPKGTIENILDNDPRDLIGDFSKGYLFHTVAGKHQDLKYISPEIMASVLNGKFANLIKEFVIIDCRYPYEYEGGHIKGAVNLHMEEEVEDFLLKKPIVPTDGKRVIVVFHCEFSSERGPRMCRYVRERDRLGNEYPKLHYPELYVLKGGYKEFFMKCQSYCEPPSYRPMHHEDFKEDLKKFRTKSRTWAGEKSKREMYSRLKKL
Consider B3, for which the binding entry is recorded as “binds”.

Values taken from publication PMC3040744.
